# According to the supplement of paper PMC3682954:
# Counter-ions that a name gives are not always drawn. ± gives the standard deviation of the averaged measurements. This is one part of the list. Repeats are few or missing, and single values can be far off.
# Tested on: RAW 264.7
# Assay: cell viability (MTT) relative to vehicle control; higher = more viable cells
# Conditions: stimulus: HMGB1 5 ug/ml, 18 h
# [1] = compound concentration: 1 ug/ml
SMILES,cell viability (compound concentration: 3 uM),cell viability [1]
OCCN(CCO)c1nc(N2CCCCC2)c2nc(N(CCO)CCO)nc(N3CCCCC3)c2n1,100%,–
OCCN(CCO)c1nc(N2CCCCC2)c2nc(N(CCO)CCO)nc(N3CCCCC3)c2n1 [Dipyridamole],99.5 ± 5.2%,–
CC[C@H](CO)Nc1nc(NCc2ccccc2)c2ncn(C(C)C)c2n1 [Roscovitine],107%,–
CC1CC(OC(=O)c2ccccc2O)CC(C)(C)C1 (centres undefined),105%,–
CC1CC(OC(=O)c2ccccc2O)CC(C)(C)C1 (centres undefined) [Homosalate],100%,–
C[C@@H](CN1CCC(Cc2ccccc2)CC1)[C@@H](O)c1ccc(O)cc1 [Ro 25-6981 hydrochloride],125%,–
COC(=O)C1=C(C#N)NC(C)=C(C(=O)OC(C)C)C1c1cccc([N+](=O)[O-])c1 (centres undefined) [Nilvadipine],106%,–
N#Cc1cc2nc(O)c(O)nc2cc1[N+](=O)[O-] [CNQX disodium],106%,–
COC(=O)[C@H](NC(=O)c1cc(-c2ccccc2)nc2ccccc12)c1ccccc1,108%,–
NC[C@@H]1O[C@@H](O[C@H]2[C@H](O)[C@@H](O[C@H]3O[C@H](CO)[C@@H](O)[C@H](N)[C@H]3O)[C@H](N)C[C@@H]2N)[C@@H](O)[C@H](O)[C@H]1O [Kanamycin A sulfate],112%,–
NC[C@@H]1O[C@@H](O[C@H]2[C@H](O)[C@@H](O[C@H]3O[C@H](CO)[C@@H](O)[C@H](N)[C@H]3O)[C@H](N)C[C@@H]2N)[C@@H](O)[C@H](O)[C@H]1O,102%,–
N[C@@H](CS(=O)O)C(=O)O [L-Cysteinesulfinic Acid],107%,–
O=C(CCCN1CCN(c2ccccn2)CC1)c1ccc(F)cc1,106%,–
O=C(CCCN1CCN(c2ccccn2)CC1)c1ccc(F)cc1 [Azaperone],101 ± 7.9%,–
Cc1cc(NC(=O)Nc2ccc3c(ccn3C)c2)sn1,107%,–
O=C(Nc1ccncc1)c1cc([N+](=O)[O-])ccc1Cl,106%,–
C#C[C@]1(O)CC[C@H]2[C@@H]3CCC4=CCCC[C@@H]4[C@H]3CC[C@@]21C [Lynestrenol],104%,–
C[C@@H](O)[C@@H]1NC(=O)[C@H](CCCCN)NC(=O)[C@@H](Cc2c[nH]c3ccccc23)NC(=O)[C@H](Cc2ccccc2)NC(=O)[C@@H](NC(=O)[C@H](N)Cc2ccccc2)CSSC[C@@H](C(=O)N[C@H](CO)[C@@H](C)O)NC1=O [Octreotide],105%,–
C[C@H](CCC(=O)O)[C@H]1CC[C@H]2[C@@H]3[C@@H](O)C[C@@H]4C[C@H](O)CC[C@]4(C)[C@H]3CC[C@]12C [Urosiol],86.7%,–
C[C@H](CCC(=O)O)[C@H]1CC[C@H]2[C@@H]3[C@@H](O)C[C@@H]4C[C@H](O)CC[C@]4(C)[C@H]3CC[C@]12C,99%,–
Cc1ccc(=O)n(-c2ccccc2)c1 [Pirfenidone],100%,–

SMILES,cell viability (compound concentration: 3 uM),cell viability [1]
Nc1c2ccccc2nc2ccccc12,94.1%,–
Cc1cn([C@@H]2O[C@H](CO)[C@@H](O)[C@H]2O)c(=O)nc1N [5-Methylcytidine],–,96.9%
CN1CCC(=C2c3ccccc3Sc3ccccc32)CC1 [Pimethixene maleate],100%,–
CN1CCC(=C2c3ccccc3Sc3ccccc32)CC1,113%,–
CC(=O)/C=C1/C(=O)N(C)c2ccccc21 [Supercinnamaldehyde],91.6%,–
Cc1ccc2oc(-c3ccccc3)cc(=O)c2c1 [6-Methylflavone],–,104%
N[C@@H](Cc1cc(I)c(Oc2ccc(O)c(I)c2)c(I)c1)C(=O)O,101%,–
N[C@@H](Cc1cc(I)c(Oc2ccc(O)c(I)c2)c(I)c1)C(=O)O [LIOTHYRONINE (L- isomer) SODIUM],108%,–
N[C@@H](Cc1cc(I)c(Oc2ccc(O)c(I)c2)c(I)c1)C(=O)O [Liothyronine],88.8%,–
"N[C@@H](Cc1cc(I)c(Oc2ccc(O)c(I)c2)c(I)c1)C(=O)O [3,3',5-Triiodo-L-thyronine]",–,93.8%
CN1CCCN=C1/C=C/c1cccc(O)c1,98.7%,–
CN1CCCN=C1/C=C/c1cccc(O)c1 [Oxantel pamoate],114%,–
CC(N)CCCC(C)(C)O (centres undefined) [Heptaminol hydrochloride],94.6%,–
CC(N)CCCC(C)(C)O (centres undefined),108%,–
CC(C)(C)c1ccc(S(=O)(=O)/C=C/C#N)cc1,93.6%,–
"O=Nc1ccc2oc(=O)ccc2c1 [6-Nitroso-1,2-benzopyrone]",109%,–
"O=C(O)c1cc(=O)c2c(Cl)cc(Cl)cc2[nH]1 [5,7-Dichlorokynurenic acid]",96.7%,–
"O=c1cc(-c2ccccc2O)oc2ccc(O)cc12 [2',6-Dihydroxyflavone]",–,95.3%
Cc1cc(O)cc(C)c1Cl,111%,–
CC(=O)N(c1onc(C)c1C)S(=O)(=O)c1ccc(N)cc1,111%,–
"CC1CN([C@H]2C[C@H](O)[C@@H](CO)O2)C(=O)NC1=O (some centres undefined) [5,6-Dihydrothymidine]",–,93.8%

SMILES,cell viability (compound concentration: 3 uM),cell viability [1]
C[C@@H](O[C@H]1OCCN(Cc2n[nH]c(=O)[nH]2)[C@H]1c1ccc(F)cc1)c1cc(C(F)(F)F)cc(C(F)(F)F)c1 [Aprepitant],112%,–
Oc1cccc(O)c1,97.8%,–
Cc1cc2c(s1)Nc1ccccc1N=C2N1CCN(C)CC1,101 ± 13%,–
Cc1cc2c(s1)Nc1ccccc1N=C2N1CCN(C)CC1 [Olanzapine],96.4 ± 12%,–
O=C1c2ccccc2C(=O)C1c1ccc(Br)cc1,113%,–
NC(=O)CC[C@H](N)C(=O)O [L-Glutamine],112%,–
CC=CC1=C(C(=O)O)N2C(=O)[C@@H](NC(=O)[C@H](N)c3ccc(O)cc3)[C@H]2SC1,111%,–
Nc1nc(OCC2CCCCC2)c2[nH]cnc2n1,103%,–
COc1ccccc1-c1oc2ccccc2c(=O)c1O [3-Hydroxy-2'-methoxyflavone],–,99.4%
CC(C)OC(=O)C(C)(C)Oc1ccc(C(=O)c2ccc(Cl)cc2)cc1,114%,–
CC(C)OC(=O)C(C)(C)Oc1ccc(C(=O)c2ccc(Cl)cc2)cc1 [Fenofibrate],104 ± 2.3%,–
"Cc1c(O)c(=O)n(-c2ccccc2)n1C [Antipyrine, 4-hydroxy]",81.2%,–
C=C1CC/C=C(\C)CC[C@@H]2[C@@H]1CC2(C)C [(-)-trans-Caryophyllene],–,98%
C[C@H]1[C@H](C)CC[C@]2(C(=O)O[C@@H]3O[C@H](CO[C@@H]4O[C@H](CO)[C@@H](O[C@@H]5O[C@H](C)[C@H](O)[C@@H](O)[C@H]5O)[C@H](O)[C@H]4O)[C@@H](O)[C@H](O)[C@H]3O)CC[C@]3(C)C(=CC[C@@H]4[C@@]5(C)C[C@@H](O)[C@H](O)[C@@](C)(CO)[C@@H]5CC[C@]43C)[C@H]12 [Asiaticoside],–,101%
CCOc1ccc2nc(S(N)(=O)=O)sc2c1,109%,–
c1coc(CNc2ncnc3[nH]cnc23)c1 [Kinetin hydrochloride],–,109%
CN1CCCN(C(c2ccccc2)c2ccc(Cl)cc2)CC1 (centres undefined) [Homochlorcyclizine dihydrochloride],104%,–
C[C@@H]1C[C@H]2[C@@H]3CCC4=CC(=O)C=C[C@]4(C)[C@@]3(Cl)[C@@H](O)C[C@]2(C)[C@@]1(OC(=O)c1ccco1)C(=O)CCl [Mometasone furoate],124%,–
CCOC(=O)c1cnc2c(cnn2CC)c1NN=C(C)C [Etazolate hydrochloride],92.2%,–
CCOC(=O)c1cnc2c(cnn2CC)c1NN=C(C)C [Etazolate],90.5%,–
Nc1ncnc2c1ncn2C1OC(COP(=O)(O)O)C(O)C1O (centres undefined) [Adenosine 5'-monophosphate monohydrate],92.2%,–

SMILES,cell viability (compound concentration: 3 uM),cell viability [1]
CCCCc1ccc2[nH]c(NC(=O)OC)nc2c1 [Parbendazole],80.2%,–
COc1cc2ncnc(Nc3cccc(Cl)c3)c2cc1OC [Tyrphostin AG 1478],117%,–
O=c1oc2cc(O)ccc2s1,115%,–
CCc1cccc(CC)c1NC(=O)CN(CC(=O)O)CC(=O)O [Etifenin],89.5%,–
CN/C(=N\CCSCc1nc[nH]c1C)NC#N [Cimetidine],96.3 ± 4.1%,–
CN/C(=N\CCSCc1nc[nH]c1C)NC#N,103%,–
"c1ccc(C2CN3CCSC3=N2)cc1 (single isomer, unassigned; (-)) [(-)-Tetramisole hydrochloride]",97.9%,–
C/C(=C\C(=O)OCCCCCCCCC(=O)O)C[C@@H]1OC[C@H](C[C@@H]2O[C@H]2[C@@H](C)[C@H](C)O)[C@@H](O)[C@H]1O,108 ± 1.6%,–
N#C/C(=C\c1ccc(O)c(O)c1)C(=O)NCCCc1ccccc1 [Tyrphostin AG 555],98.9%,–
O=C(O)c1cc(/N=N/c2ccc(S(=O)(=O)Nc3ccccn3)cc2)ccc1O [Sulfasalazine],96.2 ± 1.7%,–
O=C(O)c1cc(/N=N/c2ccc(S(=O)(=O)Nc3ccccn3)cc2)ccc1O,100 ± 9.6%,–
"Cc1cn([C@H]2CC[C@@H](CO)O2)c(=O)[nH]c1=O [2',3'-Dideoxythymidine]",–,99.6%
O=C(O)c1cc2cc(Cc3cccnc3)ccc2o1 [Furegrelate sodium],109%,–
Cc1ncc([N+](=O)[O-])n1CC(C)O (centres undefined),108%,–
Cc1ncc([N+](=O)[O-])n1CC(C)O (centres undefined) [Secnidazole],100 ± 14%,–
Cc1ncc([N+](=O)[O-])n1CC(C)O (centres undefined) [1-(2-Methyl-5-nitro-imidazol-1-yl)-propan-2-ol],99.9%,–
C/C=C(/C(=C/C)c1ccc(O)cc1)c1ccc(O)cc1,98.8%,–
C/C=C(/C(=C/C)c1ccc(O)cc1)c1ccc(O)cc1 [Dienestrol],101%,–
OC1(c2ccc(Cl)cc2)CCN(Cc2c[nH]c3ccccc23)CC1,98.4%,–
O=C(O)c1ccccc1OP(=O)(O)O,107%,–
O=C(O)c1ccccc1OP(=O)(O)O [Fosfosal],95.4%,–

# Reformatted: entries from further up.
SMILES	cell viability (compound concentration: 3 uM)	cell viability [1]
N[C@@H](CS(=O)O)C(=O)O [L-Cysteinesulfinic Acid]	107%	–
Cc1cc2c(s1)Nc1ccccc1N=C2N1CCN(C)CC1 [Olanzapine]	96.4 ± 12%	–
CCc1cccc(CC)c1NC(=O)CN(CC(=O)O)CC(=O)O [Etifenin]	89.5%	–
